Taken from: PubChem BioAssay AID493246 (Drosophila RNAi Screening Center, 2011)
The deposit covers about 21,000 reagents; this is a random part of those with a known target gene and a result. Of all reagents, 429 (2%) are marked active. 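Values are raw and not normalised between plates; calls rest on per-plate z-scores that were not deposited.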 The numbers tell different reagents against one gene apart. A plus sign joins genes that one reagent is predicted to hit. Not stated in the record: the amount of reagent, the time to read-out.

- Purpose: 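Identify essential fly genes by loss of cell viability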 (primary screen)
- Cell system: Drosophila Kc and S2R+ cells
- Knock-down reagent: long dsRNA against Drosophila genes
- Measurement: 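Cell number per well after knock-down, printed as raw plate values; calls were based on per-plate z-scores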
- Reading the numbers: Kc cell number and S2R+ cell number: higher = more cells remaining
- Active means: 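Active when the per-plate z-score of cell number is 3 or more in the direction of fewer cells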

The first 6 entries, ahead of the listing:
target	reagent no.	Kc cell number, rep 1	Kc cell number, rep 2	S2R+ cell number, rep 1	S2R+ cell number, rep 2	activity call
Pebp1	1	1.34e6	1.53e6	9.99e5	1.00e6	inactive
CG2915	1	1.31e6	1.40e6	1.04e6	1.10e6	inactive
Opa1	1	1.41e6	1.54e6	1.00e6	1.12e6	inactive
EMC7	1	1.52e6	1.56e6	1.22e6	1.28e6	inactive
CG30283	1	1.56e6	1.60e6	1.36e6	3.52e5	inactive
VhaAC39-1	1	5.49e5		8.57e5		inactive

Main list, from the first entry:
target	reagent no.	Kc cell number, rep 1	Kc cell number, rep 2	S2R+ cell number, rep 1	S2R+ cell number, rep 2	activity call
Pebp1	1	1.34e6	1.53e6	9.99e5	1.00e6	inactive
CG2915	1	1.31e6	1.40e6	1.04e6	1.10e6	inactive
Opa1	1	1.41e6	1.54e6	1.00e6	1.12e6	inactive
EMC7	1	1.52e6	1.56e6	1.22e6	1.28e6	inactive
CG30283	1	1.56e6	1.60e6	1.36e6	3.52e5	inactive
VhaAC39-1	1	5.49e5		8.57e5		inactive
CG1537	1	1.56e6	1.46e6	1.06e6	1.15e6	inactive
frtz	1	1.52e6	1.59e6	1.04e6	1.14e6	inactive
Setx	1	1.79e6	1.86e6	1.16e6	1.19e6	inactive
CG7304	1	1.26e6	1.41e6	1.29e6	1.36e6	inactive
CG42262 (retired record)	1	1.13e6	1.46e6	1.00e6	1.06e6	inactive
CG42262 (retired record)	2	1.79e6	1.67e6	1.10e6	1.22e6	inactive
sturkopf	1	1.35e6	1.42e6	1.19e6	1.15e6	inactive
Pstk + Tim9b	1	1.56e6	1.63e6	1.07e6	1.28e6	inactive
Pstk + Tim9b	2	1.57e6	1.51e6	1.14e6	1.29e6	inactive
CG15286	1	1.64e6	1.67e6	1.34e6	1.50e6	inactive
CG8176	1	1.50e6	1.48e6	1.23e6	1.41e6	inactive
CG14852	1	1.51e6	1.59e6	1.06e6	1.22e6	inactive
CG3634	1	1.21e6	1.36e6	1.24e6	1.26e6	inactive
CG12692	1	1.52e6	1.55e6	1.02e6	1.21e6	inactive
Amy-d + Amy-p	1	1.47e6	1.48e6	1.07e6	1.19e6	inactive
CG14258	1	1.42e6	1.47e6	9.82e5	1.07e6	inactive
Tmf	1	1.42e6	1.42e6	1.03e6	1.11e6	inactive
Chc	1	5.07e5		7.80e5		inactive
CG15208	1	5.84e5		8.41e5		inactive
Art1	1	1.56e6	1.61e6	1.33e6	1.45e6	inactive
Cp7Fa	1	1.55e6	1.54e6	1.08e6	1.16e6	inactive
Cp7Fa	2	1.42e6	1.45e6	9.58e5	1.07e6	inactive
CG8160	1	1.28e6	1.37e6	1.11e6	1.21e6	inactive
Vps39	1	1.65e6	1.68e6	1.34e6	1.40e6	inactive
CG31174	1	1.47e6	1.45e6	9.87e5	1.09e6	inactive
mRpL47	1	1.42e6	1.38e6	9.51e5	1.11e6	inactive
CG18179	1	1.38e6	1.34e6	1.22e6	1.35e6	inactive
CG8031	1	1.65e6	1.71e6	1.28e6	1.35e6	inactive
CG13229	1	1.59e6	1.60e6	1.21e6	1.37e6	inactive
Tengl1	1	1.50e6	1.51e6	1.02e6	1.15e6	inactive
orb	1	4.31e5	9.99e5	4.28e5	5.32e5	active
Unc50	1	1.43e6	1.51e6	1.33e6	1.45e6	inactive
CG18581	1	1.37e6	1.47e6	1.16e6	1.27e6	inactive
CSN8	1	1.47e6	1.52e6	6.85e5	8.66e5	inactive
RIC-3	1	1.43e6	1.55e6	1.13e6	1.24e6	inactive
RIC-3	2	1.41e6	1.58e6	1.34e6	2.37e5	inactive
CG7406	1	1.69e6	1.65e6	1.07e6	1.24e6	inactive
Obp28a	1	1.76e6	1.92e6	1.16e6	1.28e6	inactive
CG10991 (retired record)	1	1.45e6	1.59e6	1.27e6	1.33e6	inactive
CG5070	1	1.54e6	1.54e6	1.12e6	1.18e6	inactive
Gr21a	1	1.61e6	1.66e6	1.08e6	1.22e6	inactive
Fer3	1	1.55e6	1.67e6	1.35e6	1.37e6	inactive
drpr	1	1.41e6	1.39e6	1.11e6	1.34e6	inactive
drpr	2	1.54e6	1.44e6	1.09e6	1.26e6	inactive
CG12912	1	1.48e5	2.25e5	3.11e5	3.80e5	active
CG17030	1	1.49e6	1.44e6	1.14e6	1.21e6	inactive
Rab2	1	1.37e6	1.51e6	1.19e6	1.22e6	inactive
Fhos	1	1.39e6	1.42e6	1.01e6	1.13e6	inactive
Fhos	2	1.46e6	1.46e6	1.26e6	1.19e6	inactive
Fhos	3	1.41e6	1.49e6	1.30e6	1.20e6	inactive
Fhos	4	1.50e6	1.33e6	1.26e6	1.30e6	inactive
CG2147	1	5.82e5		8.74e5		inactive
CG13531	1	1.70e6	1.82e6	1.29e6	1.34e6	inactive
